US20180134765A1
No constants are given. Whether binding was seen depends on the method and setting. Some binding calls cover weakened binding; strength is not graded here.

By UniProt entry, the sequences of proteins in these tests, tags left out. Residues count along the entry.
UniProt P22607, residues 23-375: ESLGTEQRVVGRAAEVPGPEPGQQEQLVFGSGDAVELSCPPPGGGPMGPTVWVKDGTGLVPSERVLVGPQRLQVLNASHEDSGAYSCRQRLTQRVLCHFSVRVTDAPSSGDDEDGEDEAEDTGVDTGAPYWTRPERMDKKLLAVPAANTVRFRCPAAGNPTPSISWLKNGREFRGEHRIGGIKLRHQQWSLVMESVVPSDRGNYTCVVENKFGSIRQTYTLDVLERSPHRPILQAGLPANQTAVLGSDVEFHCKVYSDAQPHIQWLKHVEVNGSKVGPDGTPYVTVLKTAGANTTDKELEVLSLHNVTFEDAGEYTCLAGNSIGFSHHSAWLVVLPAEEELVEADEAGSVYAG

How the values were obtained:
FGFR3 (plate-coated) [1] = molecular target: FGFR3 (plate-coated) (UniProt P22607); assay: ELISA on FGFR3-coated wells after 1 h heat exposure
FGFR3 (plate-coated) [2] = molecular target: FGFR3 (plate-coated) (UniProt P22607); assay: ELISA on FGFR3-coated wells, detection with NKG2D-Fc and anti-Fc-HRP
FGFR3 (plate-coated) [3] = molecular target: FGFR3 (plate-coated) (UniProt P22607); assay: ELISA on FGFR3-coated wells, detection with NKG2D-Fc
FGFR3 (plate-coated) [4] = molecular target: FGFR3 (plate-coated) (UniProt P22607); assay: ELISA: FGFR3 coated at 2 ug/ml, protein titrated, bound protein detected with NKG2D-Fc and anti-Fc-HRP
FGFR3 (plate-coated) [5] = molecular target: FGFR3 (plate-coated) (UniProt P22607); assay: ELISA on FGFR3-coated wells after 1 h at the stated temperature and 1 h at room temperature

Measured: binding

B1: MICA-α3-iFv.2 (designed binder)
chain: EPHSLRYNLTVLSWDGSVQSGFLTEVHLDGQPFLRCDRQKCRAKPQGQWAEDVLGNKTWDRETRDLTGNGKDLRMTLAHIKDQKEGLHSLQEIRVCEIHEDNSTRSSQHFYYDGELFLSQNLETKEWTMPQSSRAQTLAMNVRNFLKEDAMKTKTHYHAMHADCLQELRRYLKSGVVLRRTVPPMVQVTRSEASGGSGDRVTITCRASQDVSTAVAWYQQKPGKAPKLLIYSASFLYSGVPSRFSGSGSGTDFTLTISSLQPEDFATYYCQQSYTTPPTFGQGTKVEIKGGSSRSSSSGGGGSGGGGEVQLVESGGGLVQPGGSLRLSCAASGFTFTSTGISWVRQAPGKGLEWVGRIYPTNGSTNYADSVKGRFTISADTSKNTAYLQMNSLRAEDTAVYYCARTYGIYDLYVDYTEYVMDYWGQGTLVTVSSGGSSRSSSSGGGGSGGGGDIQMTQSPSSLSASGGSGQITVTCRASGFYPWNITLSWRQDGVSLSHDTQQWGDVLPDGQGTYQTWVATRISQGEEQRFTCYMEHSGQHSTHPVPSGKGSHHHHHH
binds: all assays above
